The assay has as its target T1, Flag-ITIH5 (inter-alpha-trypsin inhibitor heavy chain 5) (UniProt Q86UX2).
T1 sequence: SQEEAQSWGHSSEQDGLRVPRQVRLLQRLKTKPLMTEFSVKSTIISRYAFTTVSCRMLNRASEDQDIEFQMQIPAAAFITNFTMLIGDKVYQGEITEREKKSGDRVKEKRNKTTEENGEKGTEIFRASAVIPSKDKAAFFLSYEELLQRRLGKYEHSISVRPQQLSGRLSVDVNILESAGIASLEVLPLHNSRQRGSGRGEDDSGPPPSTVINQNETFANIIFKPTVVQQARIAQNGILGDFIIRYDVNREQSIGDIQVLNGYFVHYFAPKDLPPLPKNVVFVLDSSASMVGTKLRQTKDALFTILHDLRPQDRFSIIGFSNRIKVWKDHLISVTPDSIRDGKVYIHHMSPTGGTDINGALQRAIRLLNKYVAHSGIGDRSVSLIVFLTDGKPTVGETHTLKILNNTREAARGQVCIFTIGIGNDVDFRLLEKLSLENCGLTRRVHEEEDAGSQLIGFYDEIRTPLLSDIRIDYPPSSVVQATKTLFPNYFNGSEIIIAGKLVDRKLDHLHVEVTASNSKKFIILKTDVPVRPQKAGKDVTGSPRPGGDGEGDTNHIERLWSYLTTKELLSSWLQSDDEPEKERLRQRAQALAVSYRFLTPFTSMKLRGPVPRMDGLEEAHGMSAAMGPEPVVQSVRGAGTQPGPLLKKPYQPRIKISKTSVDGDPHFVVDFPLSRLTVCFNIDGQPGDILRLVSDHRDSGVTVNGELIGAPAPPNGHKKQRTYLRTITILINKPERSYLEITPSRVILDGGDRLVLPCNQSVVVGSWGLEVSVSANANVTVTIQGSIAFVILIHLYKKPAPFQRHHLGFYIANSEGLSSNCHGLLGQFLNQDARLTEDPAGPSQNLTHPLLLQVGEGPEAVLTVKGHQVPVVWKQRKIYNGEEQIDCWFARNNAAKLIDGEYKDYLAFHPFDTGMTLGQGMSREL
The experiment in a line: affinity purification with mass spectrometry; 293T cell lysates with or without Flag-ITIH5 overexpression incubated with Flag antibody; bound proteins eluted, SDS-PAGE, CBB staining, band identified.

Chains of the proteins cited; added tags and fusions are not shown.
UniProt O43474: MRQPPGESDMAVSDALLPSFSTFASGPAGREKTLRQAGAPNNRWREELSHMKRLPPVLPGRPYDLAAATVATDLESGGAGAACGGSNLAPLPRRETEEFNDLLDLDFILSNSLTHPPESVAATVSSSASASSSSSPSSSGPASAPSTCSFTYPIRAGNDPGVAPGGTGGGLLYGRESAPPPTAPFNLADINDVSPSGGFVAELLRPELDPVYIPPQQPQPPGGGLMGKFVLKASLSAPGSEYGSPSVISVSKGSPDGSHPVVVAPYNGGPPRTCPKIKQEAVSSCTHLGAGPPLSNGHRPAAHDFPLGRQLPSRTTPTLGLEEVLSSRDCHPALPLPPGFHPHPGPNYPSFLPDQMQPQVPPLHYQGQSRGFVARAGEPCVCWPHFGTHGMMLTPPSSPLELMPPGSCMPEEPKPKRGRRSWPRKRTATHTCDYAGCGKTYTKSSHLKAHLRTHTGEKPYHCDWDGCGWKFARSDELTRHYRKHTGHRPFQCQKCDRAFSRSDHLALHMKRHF

Results are given in words; binding and its absence hold for the method and conditions named. In cells and extracts the contact can be indirect. A yes stands for co-enrichment or nearness to the bait. Other partners may have been found. Tags and fused reporters may be left off the sequences shown.

On to “KLF4, endogenous in 293T cells (from UniProt O43474 1-513)”, for which the binding entry was “binds”.

The values above are taken from publication PMC8089095.
